This assay concerns the target T1, TMEM95 entire ectodomain, monomeric biotinylated bait (mouse) (UniProt P0DJF3).
T1 sequence (chain, biotinylated (site not stated)): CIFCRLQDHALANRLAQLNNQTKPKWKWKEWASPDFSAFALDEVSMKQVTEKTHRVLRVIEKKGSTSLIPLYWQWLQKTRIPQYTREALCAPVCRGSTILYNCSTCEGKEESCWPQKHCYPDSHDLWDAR
Description: AVEXIS (avidity-based extracellular interaction screening); biotinylated monomeric baits, dialyzed against HBS, immobilised on streptavidin-coated 96-well plates; pentameric beta-lactamase-tagged preys incubated one hour; washed with HBS/0.1% Tween-20; nitrocefin hydrolysis read as absorbance at 485 nm.

Results are given in words; binding and its absence hold for the method and conditions named.

Turning to “JUNO entire ectodomain, pentameric beta-lactamase-tagged prey (mouse) (domain or fragment)”, the binding entry is reported as “no binding”.

The values are drawn from paper PMC7295574.
